Earlier results in patent US20020045179A1, “Toxicity typing using mesenchymal stem cells” (priority 2000, published 2002).
At least one structure is not confirmed: it was looked up by name or label, or the drawing left a doubt.

Assays:
[1] = Table 3, anti-cancer drugs, known toxicities in humans and/or animals
[2] = Table 1, predetermined toxicity by tissue/organ

## CC[C@H](C)[C@@H]([C@@H](CC(=O)N1CCC[C@H]1[C@H](OC)[C@@H](C)C(=O)N[C@@H](Cc1ccccc1)c1nccs1)OC)N(C)C(=O)[C@@H](NC(=O)[C@H](C(C)C)N(C)C)C(C)C [dolastatin 10]
[1]
  TOXICITIES BLOOD: +

## Nc1c(CC(=O)O)cccc1C(=O)c1ccc(Br)cc1 [bromofenac (NSAIDS), bromofenac]
[2]
  TOXICITIES LIVER: +
